# Source: the supplement of paper PMC6411743
# Amino acid sequences for entries named in this document (tags omitted). A change or cut given only in a name is not applied to a line headed by its entry.
# UniProt Q6P3W7: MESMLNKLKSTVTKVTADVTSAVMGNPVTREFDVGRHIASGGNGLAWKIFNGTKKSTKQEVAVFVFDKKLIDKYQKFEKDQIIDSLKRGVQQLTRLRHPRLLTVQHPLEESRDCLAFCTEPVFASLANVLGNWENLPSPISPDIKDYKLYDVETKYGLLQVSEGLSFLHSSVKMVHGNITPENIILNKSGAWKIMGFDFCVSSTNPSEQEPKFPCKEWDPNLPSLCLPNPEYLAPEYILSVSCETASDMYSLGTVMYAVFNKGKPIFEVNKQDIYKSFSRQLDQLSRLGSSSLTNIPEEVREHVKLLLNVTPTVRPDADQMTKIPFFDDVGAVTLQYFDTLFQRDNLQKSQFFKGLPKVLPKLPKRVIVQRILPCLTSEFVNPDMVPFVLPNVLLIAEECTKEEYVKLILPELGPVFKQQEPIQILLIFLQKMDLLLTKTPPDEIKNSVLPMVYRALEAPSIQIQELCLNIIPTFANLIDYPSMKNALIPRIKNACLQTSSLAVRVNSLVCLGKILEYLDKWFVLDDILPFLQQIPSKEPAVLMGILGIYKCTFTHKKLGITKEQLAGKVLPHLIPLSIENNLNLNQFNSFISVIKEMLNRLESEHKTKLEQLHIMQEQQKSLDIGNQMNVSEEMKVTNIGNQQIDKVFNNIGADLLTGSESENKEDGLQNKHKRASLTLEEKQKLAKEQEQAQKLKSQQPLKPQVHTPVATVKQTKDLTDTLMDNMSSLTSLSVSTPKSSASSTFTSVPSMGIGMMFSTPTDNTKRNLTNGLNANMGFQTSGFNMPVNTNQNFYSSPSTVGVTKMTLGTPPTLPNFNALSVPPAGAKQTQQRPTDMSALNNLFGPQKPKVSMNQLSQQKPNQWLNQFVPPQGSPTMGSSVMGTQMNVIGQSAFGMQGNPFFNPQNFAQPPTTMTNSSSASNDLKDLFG
# UniProt Q86VE9: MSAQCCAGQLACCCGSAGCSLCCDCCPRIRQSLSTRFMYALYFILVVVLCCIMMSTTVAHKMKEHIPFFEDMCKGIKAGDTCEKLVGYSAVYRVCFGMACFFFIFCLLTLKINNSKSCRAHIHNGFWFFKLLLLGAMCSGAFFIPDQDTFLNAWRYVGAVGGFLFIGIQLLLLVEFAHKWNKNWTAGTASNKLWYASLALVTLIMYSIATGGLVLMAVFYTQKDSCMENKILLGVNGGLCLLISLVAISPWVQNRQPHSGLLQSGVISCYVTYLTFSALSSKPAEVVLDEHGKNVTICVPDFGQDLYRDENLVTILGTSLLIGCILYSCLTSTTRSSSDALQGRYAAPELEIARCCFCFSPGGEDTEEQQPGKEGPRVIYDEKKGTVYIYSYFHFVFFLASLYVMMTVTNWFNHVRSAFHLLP
# UniProt P30566: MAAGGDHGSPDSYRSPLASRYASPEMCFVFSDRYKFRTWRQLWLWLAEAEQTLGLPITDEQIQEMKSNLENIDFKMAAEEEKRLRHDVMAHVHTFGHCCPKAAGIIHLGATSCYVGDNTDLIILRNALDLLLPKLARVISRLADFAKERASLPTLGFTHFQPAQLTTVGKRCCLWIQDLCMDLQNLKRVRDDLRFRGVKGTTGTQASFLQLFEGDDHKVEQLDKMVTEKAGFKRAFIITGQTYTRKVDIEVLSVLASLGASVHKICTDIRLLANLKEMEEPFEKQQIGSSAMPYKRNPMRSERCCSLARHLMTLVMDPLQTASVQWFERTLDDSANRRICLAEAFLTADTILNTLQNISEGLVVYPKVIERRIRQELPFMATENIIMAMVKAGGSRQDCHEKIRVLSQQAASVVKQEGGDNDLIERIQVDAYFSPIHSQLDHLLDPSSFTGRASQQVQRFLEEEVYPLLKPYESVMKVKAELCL
# UniProt A6H8Y1: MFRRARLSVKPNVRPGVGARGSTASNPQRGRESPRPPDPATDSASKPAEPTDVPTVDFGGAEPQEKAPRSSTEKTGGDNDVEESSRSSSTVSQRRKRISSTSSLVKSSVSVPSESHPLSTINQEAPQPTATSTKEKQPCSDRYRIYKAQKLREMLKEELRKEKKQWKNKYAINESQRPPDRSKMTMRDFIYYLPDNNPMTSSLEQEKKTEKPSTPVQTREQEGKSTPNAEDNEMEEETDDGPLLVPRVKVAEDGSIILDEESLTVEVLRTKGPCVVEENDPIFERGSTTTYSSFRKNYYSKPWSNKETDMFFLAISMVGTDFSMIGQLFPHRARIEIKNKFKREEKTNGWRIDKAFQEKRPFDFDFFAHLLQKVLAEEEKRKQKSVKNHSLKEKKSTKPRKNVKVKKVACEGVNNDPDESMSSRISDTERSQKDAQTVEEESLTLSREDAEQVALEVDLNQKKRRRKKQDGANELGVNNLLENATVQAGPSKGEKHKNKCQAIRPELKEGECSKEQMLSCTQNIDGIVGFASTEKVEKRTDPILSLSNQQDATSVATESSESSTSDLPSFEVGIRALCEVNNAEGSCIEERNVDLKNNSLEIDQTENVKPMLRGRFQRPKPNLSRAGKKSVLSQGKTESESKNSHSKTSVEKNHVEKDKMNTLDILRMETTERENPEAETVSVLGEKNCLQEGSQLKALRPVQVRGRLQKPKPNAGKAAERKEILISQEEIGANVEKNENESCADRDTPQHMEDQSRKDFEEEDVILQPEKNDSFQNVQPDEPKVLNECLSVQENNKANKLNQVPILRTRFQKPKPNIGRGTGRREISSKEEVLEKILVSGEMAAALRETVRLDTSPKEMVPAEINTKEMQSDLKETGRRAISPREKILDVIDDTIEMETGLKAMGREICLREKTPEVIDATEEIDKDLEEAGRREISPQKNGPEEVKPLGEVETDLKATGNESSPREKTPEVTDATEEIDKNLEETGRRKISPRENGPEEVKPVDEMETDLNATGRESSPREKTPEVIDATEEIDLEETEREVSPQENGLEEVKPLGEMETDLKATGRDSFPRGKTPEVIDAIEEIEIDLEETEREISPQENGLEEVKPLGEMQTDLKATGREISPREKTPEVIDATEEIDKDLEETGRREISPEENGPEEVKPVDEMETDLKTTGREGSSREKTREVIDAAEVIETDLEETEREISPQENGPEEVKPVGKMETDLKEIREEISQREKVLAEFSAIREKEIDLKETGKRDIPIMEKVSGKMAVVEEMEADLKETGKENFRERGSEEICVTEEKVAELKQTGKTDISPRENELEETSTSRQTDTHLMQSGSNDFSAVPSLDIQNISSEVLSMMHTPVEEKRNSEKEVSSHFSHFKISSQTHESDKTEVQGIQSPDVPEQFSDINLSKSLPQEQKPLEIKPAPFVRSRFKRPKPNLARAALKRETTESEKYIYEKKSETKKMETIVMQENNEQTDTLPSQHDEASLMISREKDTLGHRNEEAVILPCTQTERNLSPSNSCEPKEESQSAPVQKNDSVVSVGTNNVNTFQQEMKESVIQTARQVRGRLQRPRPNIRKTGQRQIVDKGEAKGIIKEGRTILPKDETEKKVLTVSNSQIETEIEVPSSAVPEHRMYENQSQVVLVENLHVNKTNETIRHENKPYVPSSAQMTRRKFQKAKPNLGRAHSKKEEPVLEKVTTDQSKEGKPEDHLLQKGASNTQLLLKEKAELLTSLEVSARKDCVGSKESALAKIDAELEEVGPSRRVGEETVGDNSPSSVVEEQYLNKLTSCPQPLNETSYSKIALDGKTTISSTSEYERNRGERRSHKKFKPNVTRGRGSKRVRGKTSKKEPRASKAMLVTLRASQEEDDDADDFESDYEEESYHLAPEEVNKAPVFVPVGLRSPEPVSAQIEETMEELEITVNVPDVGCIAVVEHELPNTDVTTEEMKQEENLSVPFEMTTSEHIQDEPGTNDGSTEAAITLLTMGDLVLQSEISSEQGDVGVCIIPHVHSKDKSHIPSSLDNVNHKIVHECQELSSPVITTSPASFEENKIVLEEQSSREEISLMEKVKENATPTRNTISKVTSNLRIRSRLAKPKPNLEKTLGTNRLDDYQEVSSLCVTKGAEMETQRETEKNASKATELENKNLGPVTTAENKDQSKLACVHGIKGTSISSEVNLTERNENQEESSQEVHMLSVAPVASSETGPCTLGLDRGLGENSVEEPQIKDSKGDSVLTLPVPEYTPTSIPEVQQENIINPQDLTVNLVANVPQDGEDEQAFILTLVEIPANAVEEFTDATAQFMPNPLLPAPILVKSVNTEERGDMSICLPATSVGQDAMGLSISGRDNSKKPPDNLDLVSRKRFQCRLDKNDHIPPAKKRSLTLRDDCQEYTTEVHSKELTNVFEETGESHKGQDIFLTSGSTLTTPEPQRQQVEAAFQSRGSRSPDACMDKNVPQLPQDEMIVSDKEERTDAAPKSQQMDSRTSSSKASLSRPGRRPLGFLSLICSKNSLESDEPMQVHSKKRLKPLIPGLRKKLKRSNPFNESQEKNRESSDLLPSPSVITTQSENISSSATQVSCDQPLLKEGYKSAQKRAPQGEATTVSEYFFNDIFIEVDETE
# UniProt Q5JUR7: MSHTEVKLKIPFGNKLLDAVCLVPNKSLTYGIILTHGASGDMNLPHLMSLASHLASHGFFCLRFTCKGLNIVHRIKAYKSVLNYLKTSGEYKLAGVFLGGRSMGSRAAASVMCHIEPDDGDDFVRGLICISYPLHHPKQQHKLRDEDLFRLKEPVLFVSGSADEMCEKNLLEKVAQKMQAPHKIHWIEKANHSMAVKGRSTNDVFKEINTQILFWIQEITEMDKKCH
# UniProt P57768: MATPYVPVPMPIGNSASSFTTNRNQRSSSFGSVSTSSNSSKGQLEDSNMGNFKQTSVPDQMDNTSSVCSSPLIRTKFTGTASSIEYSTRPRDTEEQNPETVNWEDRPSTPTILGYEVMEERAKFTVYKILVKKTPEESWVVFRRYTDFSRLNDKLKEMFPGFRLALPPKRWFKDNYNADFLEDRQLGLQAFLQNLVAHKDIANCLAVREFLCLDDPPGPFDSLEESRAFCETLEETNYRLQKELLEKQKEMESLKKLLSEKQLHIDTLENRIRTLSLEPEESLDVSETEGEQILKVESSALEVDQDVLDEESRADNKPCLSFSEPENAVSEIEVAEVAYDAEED
# UniProt O15213: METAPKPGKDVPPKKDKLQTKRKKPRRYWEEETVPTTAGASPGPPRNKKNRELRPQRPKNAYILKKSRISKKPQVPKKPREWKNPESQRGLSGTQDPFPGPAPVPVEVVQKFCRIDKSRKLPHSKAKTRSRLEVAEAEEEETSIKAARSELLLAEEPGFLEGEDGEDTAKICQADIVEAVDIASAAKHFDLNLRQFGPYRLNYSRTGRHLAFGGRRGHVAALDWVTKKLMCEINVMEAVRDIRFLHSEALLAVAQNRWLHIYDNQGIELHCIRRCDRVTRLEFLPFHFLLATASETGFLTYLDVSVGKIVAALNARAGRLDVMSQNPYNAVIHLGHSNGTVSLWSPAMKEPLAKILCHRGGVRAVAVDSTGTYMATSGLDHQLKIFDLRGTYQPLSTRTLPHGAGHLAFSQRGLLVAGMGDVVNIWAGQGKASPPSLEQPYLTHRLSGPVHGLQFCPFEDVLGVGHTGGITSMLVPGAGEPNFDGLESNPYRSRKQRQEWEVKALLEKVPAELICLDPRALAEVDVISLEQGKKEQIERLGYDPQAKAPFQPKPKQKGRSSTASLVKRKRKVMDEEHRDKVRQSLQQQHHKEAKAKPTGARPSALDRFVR
# UniProt O94967: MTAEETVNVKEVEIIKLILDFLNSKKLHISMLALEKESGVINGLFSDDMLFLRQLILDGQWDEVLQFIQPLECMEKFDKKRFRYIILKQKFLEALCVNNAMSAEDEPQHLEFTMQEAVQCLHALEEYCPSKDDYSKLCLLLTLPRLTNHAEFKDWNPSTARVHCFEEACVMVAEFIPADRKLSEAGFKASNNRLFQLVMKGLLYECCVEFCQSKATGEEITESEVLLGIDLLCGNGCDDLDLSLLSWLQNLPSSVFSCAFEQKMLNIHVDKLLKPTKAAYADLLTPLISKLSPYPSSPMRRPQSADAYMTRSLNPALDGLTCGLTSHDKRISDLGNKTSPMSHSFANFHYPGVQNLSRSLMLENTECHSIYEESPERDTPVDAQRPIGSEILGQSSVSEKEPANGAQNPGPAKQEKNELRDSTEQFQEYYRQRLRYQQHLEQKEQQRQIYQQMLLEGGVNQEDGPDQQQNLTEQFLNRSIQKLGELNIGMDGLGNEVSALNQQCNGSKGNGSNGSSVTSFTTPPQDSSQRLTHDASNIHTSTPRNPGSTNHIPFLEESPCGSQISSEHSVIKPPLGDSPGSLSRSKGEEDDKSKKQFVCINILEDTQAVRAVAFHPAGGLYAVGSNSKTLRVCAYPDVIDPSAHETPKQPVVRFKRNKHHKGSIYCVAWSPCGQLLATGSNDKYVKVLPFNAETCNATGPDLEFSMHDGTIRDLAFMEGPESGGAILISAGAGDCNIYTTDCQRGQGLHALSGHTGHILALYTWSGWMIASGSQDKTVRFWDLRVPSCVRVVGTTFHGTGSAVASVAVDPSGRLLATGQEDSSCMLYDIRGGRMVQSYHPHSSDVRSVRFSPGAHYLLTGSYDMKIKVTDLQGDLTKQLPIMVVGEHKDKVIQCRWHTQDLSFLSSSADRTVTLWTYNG
# ± gives the standard deviation of the averaged measurements. Only a part is listed here, and it is no random draw.
# Compound: Nc1ncnc2c1ncn2[C@@H]1O[C@H](COP(=O)(O)OP(=O)(O)NP(=O)(O)O)[C@@H](O)[C@H]1O [adenylyl imidodiphosphate]
# Test: NP40-soluble protein abundance relative to vehicle (solubility fold change) (ratio); higher = more soluble protein in presence of AMP-PNP
# Method in brief: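 Jurkat crude lysate (Dounce-homogenised) was treated with eight concentrations from 0.1 to 10 mM for 10 min at room temperature, then 3 min at 37 °C. It was solubilised with 0.8% NP40 and benzonase (60 min, 4 °C) and ultracentrifuged, and the supernatant was TMT-labelled for LC-MS/MS. Intensities were vsn-normalised, and the value is the fold change against the NP40-processed vehicle per replicate, from three independent experiments.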
Target,NP40-soluble protein abundance (concentration: 1mM),NP40-soluble protein abundance (concentration: 2mM),NP40-soluble protein abundance (concentration: 4mM),NP40-soluble protein abundance (concentration: 6mM),NP40-soluble protein abundance (concentration: 8mM),NP40-soluble protein abundance (concentration: 10mM)
A0A087WYU2|Q96S19 (UniProt Q96S19),1.04 ± 0.022,1.01 ± 0.015,1.01 ± 0.012,0.989 ± 0.013,0.988 ± 0.022,0.978 ± 0.026
A0A0U1RQQ9|Q6P3W7 (UniProt Q6P3W7),0.974 ± 0.023,0.962 ± 0.011,0.967 ± 0.018,0.976 ± 0.032,0.99 ± 0.028,0.985 ± 0.032
A0A0A0MT40|H3BUD4 and related entries (UniProt Q15111),0.9731 ± 0.0056,0.984 ± 0.013,0.958 ± 0.011,1 ± 0.025,0.994 ± 0.034,0.991 ± 0.023
A0A0A0MRJ6|C9J0F2 and related entries (UniProt P22061),0.995 ± 0.032,0.979 ± 0.029,0.965 ± 0.063,0.98 ± 0.046,0.976 ± 0.041,0.934 ± 0.069
A0A087WZ13|E9PAU2 (UniProt Q8IY67),1.08 ± 0.052,1.05 ± 0.03,1.06 ± 0.04,1.047 ± 0.0051,1.04 ± 0.011,1.03 ± 0.012
A0A0A0MRM1|E9PL24 and related entries (UniProt Q5VU43),0.9748 ± 0.0094,1.04 ± 0.033,0.969 ± 0.012,0.965 ± 0.037,0.9437 ± 0.0022,0.952 ± 0.039
A0A087WY85|P61077 and related entries (UniProt P61077),0.921 ± 0.043,0.875 ± 0.084,0.932 ± 0.029,0.996 ± 0.041,1 ± 0.044,0.965 ± 0.036
A0A0B4J1S8|Q9UBF8 and related entries (UniProt Q9UBF8),0.999 ± 0.022,1.01 ± 0.034,1.02 ± 0.026,0.969 ± 0.039,0.977 ± 0.016,0.961 ± 0.034
A0A0G2JIW1|P0DMV8 and related entries (UniProt P0DMV9+P0DMV8),1.04 ± 0.021,1.04 ± 0.025,1.04 ± 0.036,1.05 ± 0.049,1.04 ± 0.052,1.05 ± 0.068
A0A0A0MTB0|A0A0J9YYI4|D6RHG7 and related entries (UniProt Q86VE9),0.9854 ± 0.0076,0.973 ± 0.036,0.977 ± 0.03,0.955 ± 0.032,0.954 ± 0.023,0.949 ± 0.043
A0A0A6YY92|P30566 (UniProt P30566),0.998 ± 0.026,0.963 ± 0.067,0.984 ± 0.013,0.954 ± 0.033,0.96 ± 0.041,0.945 ± 0.044
A0A0A6YYA7|Q12851 and related entries (UniProt Q12851),0.971 ± 0.02,0.953 ± 0.067,0.956 ± 0.038,0.961 ± 0.049,0.916 ± 0.047,0.943 ± 0.04
A0A0D9SGJ6|J3KQV8 and related entries (UniProt O43426),0.998 ± 0.046,1.02 ± 0.045,1.04 ± 0.059,0.995 ± 0.061,1.01 ± 0.07,1.02 ± 0.05
A0A0C4DFN8|P22570 and related entries (UniProt P22570),1.01 ± 0.0058,1.01 ± 0.053,1.02 ± 0.033,0.988 ± 0.015,0.977 ± 0.012,0.976 ± 0.011
A0A0G2JNU3|A6H8Y1 and related entries (UniProt A6H8Y1),1.05 ± 0.041,1.087 ± 0.0063,1.12 ± 0.056,1.17 ± 0.067,1.12 ± 0.07,1.22 ± 0.046
A0A0C3SFZ9|M0QZI3 and related entries (UniProt O14526),1.01 ± 0.014,1 ± 0.013,0.9951 ± 0.0053,0.982 ± 0.031,0.965 ± 0.039,0.948 ± 0.018
A0A087WZV0|O43314 and related entries (UniProt O43314),1.03 ± 0.044,1.03 ± 0.039,1.07 ± 0.06,1.03 ± 0.039,1.07 ± 0.028,1.05 ± 0.048
A0A0A6YYH1|H0YLI7 and related entries (UniProt Q7Z6K5+P59780+H0YLI7),1 ± 0.04,1.01 ± 0.011,0.9742 ± 0.0072,0.974 ± 0.028,0.965 ± 0.032,0.968 ± 0.017
A0A0C4DH01|Q9NVU0 and related entries (UniProt Q9NVU0),1 ± 0.058,1.02 ± 0.019,1.06 ± 0.052,1.03 ± 0.063,1.02 ± 0.064,1.07 ± 0.081
A0A0A0MSE9|B7WPA5 and related entries (UniProt Q96CS7),0.9883 ± 0.0098,1.01 ± 0.018,0.991 ± 0.026,0.9909 ± 0.0033,1.01 ± 0.015,0.974 ± 0.013
A0A0G2JIW2|A2AE48 and related entries (UniProt Q12899),1.033 ± 0.0052,0.98 ± 0.01,1.01 ± 0.02,1.02 ± 0.039,1.04 ± 0.027,1.02 ± 0.011
A0A0A0MT35|Q8TBF2 and related entries (UniProt Q8TBF2),1 ± 0.038,0.996 ± 0.041,0.998 ± 0.048,1.01 ± 0.038,1.03 ± 0.026,1.04 ± 0.024
A0A087X2G6|A0A0C4DGU5|D6RIC3 and related entries (UniProt Q9Y3C1),1.02 ± 0.071,1.01 ± 0.049,1 ± 0.053,0.993 ± 0.023,1.01 ± 0.039,1.01 ± 0.058
A0A0A0MQR2|Q9BY42 (UniProt Q9BY42),1.04 ± 0.022,1.06 ± 0.077,1.03 ± 0.028,1.03 ± 0.02,1 ± 0.033,1.03 ± 0.07
A0A087X0M0|Q7Z5L2 and related entries (UniProt Q7Z5L2),0.961 ± 0.02,0.961 ± 0.027,0.964 ± 0.02,0.972 ± 0.045,0.969 ± 0.055,0.962 ± 0.03
A0A0U1RRB6|Q9Y2D4 (UniProt Q9Y2D4),1.01 ± 0.026,1.002 ± 0.0044,1.032 ± 0.0094,0.967 ± 0.02,0.982 ± 0.028,1 ± 0.045

# A different layout for part of the listing above.
Target	NP40-soluble protein abundance (concentration: 1mM)	NP40-soluble protein abundance (concentration: 2mM)	NP40-soluble protein abundance (concentration: 4mM)	NP40-soluble protein abundance (concentration: 6mM)	NP40-soluble protein abundance (concentration: 8mM)	NP40-soluble protein abundance (concentration: 10mM)
A0A0A0MSE9|B7WPA5 and related entries (UniProt Q96CS7)	0.9883 ± 0.0098	1.01 ± 0.018	0.991 ± 0.026	0.9909 ± 0.0033	1.01 ± 0.015	0.974 ± 0.013
A0A0G2JIW2|A2AE48 and related entries (UniProt Q12899)	1.033 ± 0.0052	0.98 ± 0.01	1.01 ± 0.02	1.02 ± 0.039	1.04 ± 0.027	1.02 ± 0.011

# Carrying on.

Target,NP40-soluble protein abundance (concentration: 1mM),NP40-soluble protein abundance (concentration: 2mM),NP40-soluble protein abundance (concentration: 4mM),NP40-soluble protein abundance (concentration: 6mM),NP40-soluble protein abundance (concentration: 8mM),NP40-soluble protein abundance (concentration: 10mM)
A0A0C4DFW4|Q5JUR7 (UniProt Q5JUR7),1 ± 0.025,1.01 ± 0.02,1.03 ± 0.028,1.03 ± 0.06,1.02 ± 0.05,1.04 ± 0.028
A0A0C4DGW2|P57768 and related entries (UniProt P57768),1.03 ± 0.026,1.02 ± 0.033,1.02 ± 0.043,1 ± 0.02,0.989 ± 0.025,1 ± 0.014
A0A0J9YXM6|E9PDG3 and related entries (UniProt Q562E7),0.98 ± 0.021,0.955 ± 0.027,0.996 ± 0.027,0.9874 ± 0.0086,0.996 ± 0.04,0.998 ± 0.022
A0A0A0MSA9|A0A0C4DG49|P15151 and related entries (UniProt P15151),1.01 ± 0.03,0.997 ± 0.017,0.992 ± 0.033,1.04 ± 0.015,1.046 ± 0.0088,1.03 ± 0.021
A0A140T9L0|O15213 (UniProt O15213),0.994 ± 0.019,0.9887 ± 0.0036,1.04 ± 0.021,1.02 ± 0.012,0.992 ± 0.019,1.05 ± 0.02
A0A0A6YYL4|P57737-3 (UniProt P57737),1.01 ± 0.013,0.9994 ± 0.0071,1.02 ± 0.02,0.985 ± 0.011,0.993 ± 0.034,0.9577 ± 0.0086
A0A0A0MRE6|O94967 and related entries (UniProt O94967),1.01 ± 0.025,1.02 ± 0.039,1.023 ± 0.0068,0.999 ± 0.039,0.984 ± 0.026,0.985 ± 0.031
A0A0C4DGC9|Q8TDR2 (UniProt Q8TDR2),1 ± 0.036,1.05 ± 0.034,1.06 ± 0.029,1.04 ± 0.042,1.03 ± 0.021,1.06 ± 0.043
A0A087X0S7|A0A0B4J2G4|Q15345 and related entries (UniProt Q15345),1.04 ± 0.014,1.07 ± 0.057,1.02 ± 0.018,1.02 ± 0.032,1.016 ± 0.0041,1.01 ± 0.033
A0A0C4DFU2|P04179 and related entries (UniProt P04179),0.928 ± 0.048,0.934 ± 0.027,0.946 ± 0.063,1.09 ± 0.12,1.07 ± 0.099,1.05 ± 0.086
A0A0A0MT23|A0A0A0MST9 (UniProt P27448),1.07 ± 0.017,1.13 ± 0.073,1.15 ± 0.082,1.12 ± 0.035,1.14 ± 0.041,1.16 ± 0.012
A0A087WY55|Q9NP79 (UniProt Q9NP79),0.98 ± 0.07,1.03 ± 0.06,0.973 ± 0.092,0.945 ± 0.11,0.979 ± 0.069,0.891 ± 0.11
A0A0A0MRW1|Q5T593 and related entries (UniProt Q8IW50),0.963 ± 0.057,0.981 ± 0.028,0.952 ± 0.048,0.964 ± 0.044,0.937 ± 0.021,0.923 ± 0.032
A0A087WWW9|O95999 (UniProt O95999),0.986 ± 0.043,1.03 ± 0.089,0.984 ± 0.043,0.994 ± 0.053,0.9647 ± 0.0084,0.992 ± 0.068
A0A0C4DGV9|P49917 (UniProt P49917),1.02 ± 0.032,0.969 ± 0.12,1.02 ± 0.06,1.04 ± 0.078,1.05 ± 0.073,1.01 ± 0.056
A0A087WXF8|A0A087WXU5|A0A087WYF0|A0A0D9SEW3|E7EPF0 and related entries (UniProt Q9NP64),0.976 ± 0.047,0.996 ± 0.015,0.991 ± 0.065,1.05 ± 0.058,1.03 ± 0.061,1.01 ± 0.061
A0A0A0MTH9|O14981 (UniProt O14981),1.01 ± 0.025,0.988 ± 0.04,1.01 ± 0.028,0.965 ± 0.027,0.965 ± 0.014,0.969 ± 0.019
A0A087WWK8|A0A0C4DGT3|Q6DN90 (UniProt Q6DN90),0.984 ± 0.025,0.989 ± 0.029,0.989 ± 0.011,0.995 ± 0.025,0.99 ± 0.02,1.01 ± 0.029
A0A087WWC6|P01848 and related entries (UniProt Q6P4I7+P01848),1.01 ± 0.029,1.05 ± 0.077,0.976 ± 0.039,1.01 ± 0.021,0.977 ± 0.032,0.9923 ± 0.0095
A0A0J9YW33|Q13277 and related entries (UniProt Q13277),1.02 ± 0.022,1.04 ± 0.03,1.05 ± 0.011,1.05 ± 0.031,1.06 ± 0.023,1.06 ± 0.023
A0A0C4DFX9|Q9H3P2 (UniProt Q9H3P2),1.02 ± 0.017,1.03 ± 0.058,1.01 ± 0.028,1.005 ± 0.002,0.982 ± 0.015,0.98 ± 0.028
A0A0A0MR85|Q03013 (UniProt Q03013),0.998 ± 0.013,0.984 ± 0.01,0.948 ± 0.046,0.951 ± 0.04,0.934 ± 0.033,0.928 ± 0.056
A0A0A0MSY7|E5KNQ5 and related entries (UniProt O00142),0.983 ± 0.057,1.01 ± 0.097,0.988 ± 0.06,0.978 ± 0.013,1 ± 0.011,0.985 ± 0.035
A0A0A0MTR2|Q8N543 (UniProt Q8N543),1.01 ± 0.017,0.975 ± 0.072,1.01 ± 0.057,0.967 ± 0.031,0.963 ± 0.037,0.946 ± 0.058
A0A0C4DGH2|P62070 and related entries (UniProt P62070),0.999 ± 0.022,0.994 ± 0.045,1.05 ± 0.066,1.1 ± 0.068,1.08 ± 0.053,1.1 ± 0.057
A0A087X0R0|F5H6S1 and related entries (UniProt O15550),1 ± 0.047,1.02 ± 0.035,1.02 ± 0.047,1.03 ± 0.032,0.984 ± 0.041,1.01 ± 0.079
